For eight molecules, binding results are on record in patent publication US20060008846A1 (RESEARCH DEVELOPMENT FOUNDATION, published 2006).

Amino acid sequences for entries named in this document (tags omitted). Residues count along the entry.
UniProt P27038, residues 20-513: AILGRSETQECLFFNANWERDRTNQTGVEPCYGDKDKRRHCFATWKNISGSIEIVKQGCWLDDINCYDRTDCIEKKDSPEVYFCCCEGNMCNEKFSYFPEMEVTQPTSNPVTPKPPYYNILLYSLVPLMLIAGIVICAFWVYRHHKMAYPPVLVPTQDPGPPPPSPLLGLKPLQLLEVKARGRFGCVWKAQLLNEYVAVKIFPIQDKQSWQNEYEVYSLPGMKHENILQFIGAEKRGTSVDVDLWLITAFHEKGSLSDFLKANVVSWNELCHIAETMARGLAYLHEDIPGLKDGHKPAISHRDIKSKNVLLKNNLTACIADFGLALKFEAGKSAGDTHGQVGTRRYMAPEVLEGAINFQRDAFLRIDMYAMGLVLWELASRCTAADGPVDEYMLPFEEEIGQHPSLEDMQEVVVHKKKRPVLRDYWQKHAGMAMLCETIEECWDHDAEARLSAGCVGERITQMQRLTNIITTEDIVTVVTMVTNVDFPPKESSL

The target of assay [1] is ActRII-myc transfected into 293T cells (UniProt P27038). Description: DSS crosslinking of 125I-activin-A to 293T cells transfected with ActRII-myc, immunoprecipitation, autoradiography.
The target in assay [2] is ActRII (type II activin receptor) transfected into 293T cells (UniProt P27038). Briefly: competition binding, 125I-activin-A on intact 293T cells transfected with ActRII.
Assay [3] concerns the target ActRII-myc transfected into 293T cells (UniProt P27038). Description: DSS crosslinking of 125I-M108A to 293T cells transfected with ActRII-myc, immunoprecipitation, autoradiography.
In assay [4] the target is ActRII (type II activin receptor) transfected into 293T cells (UniProt P27038). Briefly: competition binding on 293T cells transfected with ActRII (summing up of the earlier examples).

Residue numbers refer to the chain shown, from its start. Numbers in names are those of the source. These are yes or no findings as the source states them, for the method shown. Some results given as binding are weak or reduced against the parent protein; the word gives no strength.

B1: wild type activin-A (ligand, human, UniProt P08476 311-426, looked up)
chain: GLECDGKVNICCKKQFFVSFKDIGWNDWIIAPSGYHANYCEGECPSHIAGTSGSSLSFHSTVINHYRMRGHSPFANLKSCCVPTKLRPMSMLYYDDGQNIIKKDIQNMIVEECGCS
notes: mature; As tracer it was radioiodinated by the chloramine T method; also called WT activin-A; wt activin-A
Consider B1, for which, in assay [1], the binding result is recorded as “binds”.

B2: activin-A I63P (ligand, human, UniProt P08476 311-426, looked up)
chain: B1 chain with I63P
Turning to B2, the binding entry in assay [2] is given as “binds”.

B3: activin-A S60P (ligand, human, UniProt P08476 311-426, looked up)
chain: B1 chain with S60P
Regarding B3, in assay [2], the binding entry is recorded as “binds”.

B4: A/C-2 chimeric activin A/activin C protein (ligand, human, UniProt P08476 311-426, looked up)
chain: GLECDGKVNICCKKQFFVSFKDIGWNDWIIAPSGYHANYCEGECPSHIAGTSGSSLSFHTAVLNLLKANTAAPFANLKSCCVPTKLRPMSMLYYDDGQNIIKKDIQNMIVEECGCS
On to B4, for which, in assay [2], the binding entry is reported as “binds”.

B5: activin-A M108E (ligand, human, UniProt P08476 311-426, looked up)
chain: B1 chain with M108E
In the case of B5, the binding entry in assay [2] is on record as “binds”.

B6: activin-A I105E (ligand, human, UniProt P08476 311-426, looked up)
chain: B1 chain with I105E
For B6, in assay [2], the binding entry is listed as “binds”.

B7: activin-A (M108A) (ligand, human, UniProt P08476 311-426, looked up)
chain: B1 chain with M108A
notes: mature; Radioiodinated by the chloramine T method for the crosslinking study; also called M108A activin-A; M108A mutant
As for B7, the binding result in assay [3], in assay [2] and in assay [4] was “binds” throughout.

B8: activin-A M91E (ligand, human, UniProt P08476 311-426, looked up)
chain: B1 chain with M91E
For B8, the binding entry in assay [2] is given as “binds”.
